# Only a part is listed here, and it is no random draw. Calls of active or inactive are those of the source. Calls follow the shape of the dose curve; as a rule, active = well fitted inhibition curve with a large enough effect; inconclusive = small, poorly fitted or top-dose-only effect; inactive = no such curve, though single readings can be large or run the other way.
# Protein sequences, listed by entry. Tags and fused reporters are not part of them. Lines headed by an entry give the natural chain unless they say otherwise; changes in a name come on top.
# UniProt P17405: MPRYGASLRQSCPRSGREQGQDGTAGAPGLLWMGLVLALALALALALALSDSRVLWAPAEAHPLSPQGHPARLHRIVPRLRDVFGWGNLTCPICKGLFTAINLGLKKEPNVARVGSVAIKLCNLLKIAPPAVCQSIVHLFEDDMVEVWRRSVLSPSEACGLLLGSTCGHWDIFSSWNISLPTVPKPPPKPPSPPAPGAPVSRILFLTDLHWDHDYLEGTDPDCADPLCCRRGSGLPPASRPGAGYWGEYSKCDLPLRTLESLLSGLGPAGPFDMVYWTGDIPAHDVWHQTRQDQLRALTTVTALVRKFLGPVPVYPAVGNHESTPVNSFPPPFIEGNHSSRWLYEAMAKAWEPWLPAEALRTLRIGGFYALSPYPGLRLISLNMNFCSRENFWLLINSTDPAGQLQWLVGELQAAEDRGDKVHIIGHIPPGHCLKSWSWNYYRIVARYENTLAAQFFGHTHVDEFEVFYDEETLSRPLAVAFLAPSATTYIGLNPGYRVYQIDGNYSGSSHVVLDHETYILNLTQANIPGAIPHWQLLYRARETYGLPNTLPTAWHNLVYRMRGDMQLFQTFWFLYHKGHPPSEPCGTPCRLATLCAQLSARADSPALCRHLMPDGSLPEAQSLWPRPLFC
# Target: Sphingomyelin phosphodiesterase (Homo sapiens) (UniProt P17405)
# Assay: Inhibitors of Secretory Acid Sphingomyelinase (S-ASM): qHTS
# Settings: placental ASM, HMU-PC fluorogenic substrate (series up to 57.5 µM), 60 min
# Text: Atherosclerosis is the underlying process for cardiovascular disease and thus is a major contributor to disease burden in the population. […] Thus, selective small molecule inhibitors of S-ASM should block LDL modification and reduce aortic LDL retention and may serve as new agents for the treatment of atherosclerosis. In a collaboration between National Heart, Lung, and Blood Institute and the NCGC a high-throughput amenable screen was developed to identify potent and selective small molecule inhibitors of S-ASM. This enzymatic, fluorescent screen uses an ASM enzyme preparation derived from human placenta and was tested against the NIH Molecular Libraries Small Molecule Repository (MLSMR). NIH Chemical Genomics Center [NCGC] NIH Molecular Libraries Probe Centers Network [MLPCN] MLPCN Grant: MH093173-01 Assay Submitter (PI): Alan Remaley, National Heart, Lung, and Blood Institute and Wei Zhen, NIH Chemical Genomics Center
# Two microliters of ASM enzyme (1:150 dilution from stock) are dispensed in 1536-well plate. 23 nL of compound and control are pinned into assay plate using the Kalypsys pintool. The plates are then incubated for 10 minutes at ambient room temperature. Then, 2 uL of the flurogenic substrate, HMU-PC0, (9 uM final) are added to the plate. […] Plate is read on ViewLux, with detection set at Ex = 386 (10) nm and Em = 447 (10) nm.
# Potency is read from the fitted curve at half-maximal effect.
row,SMILES,Potency
1,CCCCc1oc2ccccc2c1C(=O)c1cc(I)c(OCCN(CC)CC)c(I)c1,active: 39.8 µM

# From PubChem BioAssay AID504937 (National Center for Advancing Translational Sciences (NCATS), 2011)
